Experimental data reported in US20250179299A1, “DYES FOR MONITORING CELL STATES” (SUNNYBROOK RESEARCH INSTITUTE, priority 2022, published 2025).
For at least one compound, name, drawing or mass did not settle the structure. Some entries repeat one wording, which the source may state once for all of them.

Tested on: MCF-7 tumoral cells
Experiment: Staining of live MCF-7 cells with 1 μM dye (microscopy)
Format: cell-based, human
Procedure: FIGS. 14A-J depict microscopy images showing staining of MCF7 cells with 1 μM of the following dyes: MT3 (FIG. 14A), MT20 (FIG. 14B), MT21 (FIG. 14C), MT22 (FIG. 14D), MT23 (FIG. 14E), MT24 (FIG. 14F), MT25 (FIG. 14G), MT26 (FIG. 14H), MT27 (FIG. 14I), and MT28 (FIG. 14J). Scale bar, 25 μm.
Used at a standard 1 μM concentration, the proposed dyes produce varying staining patterns and intensities. Furthermore, the proposed dyes display fluorescent properties only when labelling cell organelles and can therefore be used directly without washing steps.

Row | SMILES | ability to stain live cells
1 | Cc1cccc(N(c2cccc(C)c2)c2ccc3cc(/C=C/c4cc[n+](CCCS(=O)(=O)[O-])cc4F)ccc3c2)c1 [MT23, 4-[(1E)-2-{6-[Bis(3-methylphenyl)amino]naphthalen-2-yl}ethenyl]-3-fluoro-1-(3-sulfopropyl)pyridin-1-ium] | able to stain live cells
2 | Cc1cccc(N(c2cccc(C)c2)c2ccc3cc(/C=C(\F)c4cc[n+](CCCS(=O)(=O)[O-])cc4)ccc3c2)c1 [MT24, 4-[(1Z)-2-{6-[Bis(3-methylphenyl)amino]naphthalen-2-yl}-1-fluoroethenyl]-1-(3-sulfopropyl)pyridin-1-ium] | able to stain live cells
3 | CC(C)=CCN(CC=C(C)C)c1ccc2cc(/C=C/c3cc[n+](CCCS(=O)(=O)[O-])cc3)ccc2c1F [MT25, 4-[(1E)-2-{6-[Bis(3-methylbut-2-en-1-yl)amino]-5-fluoronaphthalen-2-yl}ethenyl]-1-(3-sulfopropyl)pyridin-1-ium] | able to stain live cells
4 | CC(C)=CCN(CC=C(C)C)c1ccc2cc(/C=C/c3cc[n+](CCCS(=O)(=O)[O-])cc3)ccc2c1C(F)(F)F [MT26, 4-[(1E)-2-{6-[Bis(3-methylbut-2-en-1-yl)amino]-5-(trifluoromethyl)naphthalen-2-yl}ethenyl]-1-(3-sulfopropyl)pyridin-1-ium] | able to stain live cells
